# Data published in PMC2858655, “Structural and Functional Characterization of Human Peripheral Nervous System Myelin Protein P2” (PLoS ONE, 2010).
# Amino acid sequences for entries named in this document (tags omitted).
# UniProt P02689: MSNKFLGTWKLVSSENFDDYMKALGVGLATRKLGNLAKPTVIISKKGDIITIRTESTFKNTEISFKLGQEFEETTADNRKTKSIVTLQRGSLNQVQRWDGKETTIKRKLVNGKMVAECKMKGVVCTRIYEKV
# Results are given in words; binding and its absence hold for the method and conditions named.
# What was measured:
# [1] = molecular target: recombinant human myelin P2 protein (human) (UniProt P02689); assay: condition: up to 4 mg/ml (methods); 4.4 mg/ml (legend of Figure 3); SAXS; 50 mM HEPES pH 7.5, 150 mM NaCl, 10% glycerol; concentrations up to 4 mg/ml; beamline X33, EMBL-Hamburg; both purified
# [2] = molecular target: recombinant human myelin P2 protein (human) (UniProt P02689); assay: SEC; final gel filtration on Superdex 75 16/60 in 20 mM HEPES pH 7.5, 50 mM NaCl, 10% glycerol; single peak; apparent molecular weight 15 kDa; both purified
substance,measurement,setting,value
recombinant human myelin P2 protein (from UniProt P02689 1-132),binding,[1],no binding
same,binding,[2],no binding
